In the supplement of paper PMC8166895:
Structures can show the parent of a compound that is named as a salt. The list shows a part of the results. Most entries show no effect beyond the scatter of the controls.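 A single-replicate pilot screen of approved drugs and clinical or known-target compounds measured melting temperature via differential scanning fluorimetry. Top stabilizing hits raised the melting point by 2 °C or more; negative shifts indicate destabilization.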

Each compound was assayed on SARS-CoV-2 main protease (Mpro, nsp5) (assay: thermal shift ΔTm of Mpro relative to plate average Tm; higher = stronger thermal stabilization of Mpro (binding)). Details: 10 µM; protein concentration 1 µM.

SMILES	thermal shift ΔTm of Mpro [°C]
COc1ccccc1OCC(O)COC(N)=O (stereo not drawn) [Methocarbamol]	0.0171
O=C1NCCCc2c1oc1ccc(O)cc21	-0.0815
Nc1ccn([C@@H]2CS[C@H](CO)O2)c(=O)n1 [Lamivudine]	0.0344
CN(C)C(=O)Oc1ccc[n+](C)c1 [Pyridostigmine Bromide]	-0.13
CCc1c(Cl)c(O)c(Cl)c(O)c1C(=O)O[C@H]1[C@H](O)[C@H](OC)[C@H](OC/C2=C\C=C\C[C@H](O)/C(C)=C/[C@H](CC)[C@@H](O[C@@H]3OC(C)(C)[C@@H](OC(=O)C(C)C)[C@H](O)[C@@H]3O)/C(C)=C/C(C)=C/C[C@@H]([C@@H](C)O)OC2=O)O[C@@H]1C [Fidaxomicin]	0.0114
Cc1cc(N)c2ccccc2[n+]1CCCCCCCCCC[n+]1c(C)cc(N)c2ccccc21 [Dequalinium chloride]	-0.249
CN1CCN(c2nc3ccccc3nc2Cl)CC1	-0.111
COc1cc2c(cc1OC)C(Cc1ccc(O)cc1)N(C)CC2 (stereo not drawn) [Armepavine]	0.0187
CO/N=C(\C(=O)N[C@@H]1C(=O)N2C(C(=O)OC(C)OC(C)=O)=C(COC(N)=O)CS[C@H]12)c1ccco1 (stereo partly drawn) [Cepazine]	-0.0535
C=CC(=O)Nc1cccc(Nc2nc(Nc3ccc(OCCOC)cc3)ncc2F)c1	0.148
N#Cc1c(NC(=O)c2cccc3ccccc23)sc2c1CCCC2 [JNK Inhibitor IX]	-0.0348
CCC(=O)Nc1cccc(Oc2nc(Nc3ccc(N4CCN(C)CC4)cc3OC)ncc2Cl)c1	0.317
C[C@@H]1O[C@@H](O[C@H]2[C@H](OC(=O)[C@]34CCC(C)(C)C[C@H]3C3=CC[C@@H]5[C@@]6(C)C[C@H](O)[C@H](O[C@@H]7O[C@H](CO)[C@@H](O)[C@H](O)[C@H]7O)C(CO)(CO)[C@@H]6CC[C@@]5(C)[C@]3(C)C[C@H]4O)OC[C@H](O)[C@@H]2O)[C@H](O)[C@H](O)[C@H]1O[C@@H]1OC[C@@H](O)[C@H](O)[C@H]1O [Deapi-platycodin D]	-0.112
CC(C)n1nc(-c2ccc(NC(=O)Nc3cc(C(F)(F)F)ccc3F)cc2)c2c(N)ncnc21	0.357
Cn1cc(-c2ccc3c(c2)CCN3C(=O)Cc2cccc(C(F)(F)F)c2)c2c(N)ncnc21	-0.316
Oc1cccc(-c2nc(N3CCOCC3)c3oc4ncccc4c3n2)c1	-0.00626
CCOc1cc2c(c(F)c1OCC)C(=N)N(CC(=O)c1cc(N3CCOCC3)c(OC)c(C(C)(C)C)c1)C2 [Atopaxar Hydrobromide]	-0.39
Fc1ccc(-c2c3cccc(C(F)(F)F)c3nn2Cc2ccc(F)cc2Cl)cc1	0.103
CC(=O)OCC(=O)[C@H]1CC[C@H]2[C@@H]3CCC4=CC(=O)CC[C@]4(C)[C@H]3CC[C@]12C [Deoxycorticosterone acetate]	-0.0493
Cc1cc(C(=O)Nc2cccc(C(=O)Nc3cccc(C(F)(F)F)c3)c2)on1	-0.0169
N#C/C(=C\c1ccc(O)c(O)c1)C(=O)NCc1ccccc1 [AG-490 (Tyrphostin B42)]	0.441
Cc1ccc2nc(NC(=O)CSc3nc4c(c(=O)n3-c3ccccc3)SCC4)sc2c1	-0.108
C#C[C@]1(O)CC[C@H]2[C@@H]3CCC4=CC(=O)CC[C@@H]4[C@H]3CC[C@@]21CC [Levonorgestrel]	-0.185
N=C(N)NCCN1CCCCCCC1 [Guanethidine Monosulfate]	0.166
CC(C)(Sc1cc(C(C)(C)C)c(O)c(C(C)(C)C)c1)Sc1cc(C(C)(C)C)c(OC(=O)CCC(=O)O)c(C(C)(C)C)c1 [Succinobucol]	-0.656

SMILES	thermal shift ΔTm of Mpro [°C]
CC1(C)[C@@H](OC(=O)CCC(=O)O)CC[C@]2(C)[C@H]3C(=O)C=C4[C@@H]5C[C@@](C)(C(=O)O)CC[C@]5(C)CC[C@@]4(C)[C@]3(C)CC[C@@H]12 [Carbenoxolone disodium]	0.113
C=CCOC(Cn1ccnc1)c1ccc(Cl)cc1Cl (stereo not drawn) [Imazalil]	0.131
Cc1cc2c(C(C)C)c(O)c(O)c(C=O)c2c(O)c1-c1c(C)cc2c(C(C)C)c(O)c(O)c(C=O)c2c1O [Gossypol]	0.502
Cc1cc2c(C(C)C)c(O)c(O)c(C=O)c2c(O)c1-c1c(C)cc2c(C(C)C)c(O)c(O)c(C=O)c2c1O	1.15
Cc1cc(COc2nc(N)nc3ccn(Cc4ccccn4)c23)no1 [TLR7-agonist-1]	-0.0956
C[C@@H]1COC(Nc2ccc3ncnc(Nc4ccc(OCc5nccs5)c(Cl)c4)c3c2)=N1 [Varlitinib]	-0.00505
O=C(/C=C/c1ccc(O)c(O)c1)O[C@@H]1C[C@](O)(C(=O)O)C[C@@H](O)[C@H]1O [Chlorogenic Acid]	-0.172
CC[C@@H](CO)NCCN[C@@H](CC)CO [Ethambutol HCl]	-0.0294
C=CS(=O)(=O)NC1CCN(C(=O)CNc2cc(I)c(Cl)cc2OC)CC1 [K-Ras(G12C) inhibitor 9]	-0.0423
C[C@]1(Cn2ccnn2)[C@H](C(=O)O)N2C(=O)C[C@H]2S1(=O)=O [Tazobactam acid]	0.221
CCN(CC)CCCCNc1ncc2cc(-c3cc(OC)cc(OC)c3)c(NC(=O)NC(C)(C)C)nc2n1	0.0899
CN1C2CCC1CC(OC(=O)C(O)c1ccccc1)C2 (stereo not drawn) [Homatropine Bromide]	0.0198
CCN(CC)CCOCCOC(=O)C(CC)(CC)c1ccccc1 [Oxeladin citrate]	0.155
CCCOc1ccc(C(=O)OCCN(CC)CC)cc1N [Proparacaine HCl]	0.0776
O=C(NC1CCN(CC(F)(F)F)CC1)c1ccc(-c2cccc(F)c2)nc1 [HPGDS-inhibitor-1]	-0.0595
O=C([O-])/C=C/C(=O)[O-].[Fe+2] [Ferrous fumarate]	0.132
CCCCCCCCCCCC[N+](C)(C)CCOc1ccccc1 [Domiphen Bromide]	-0.469
CC(O)c1ccc(S(=O)(=O)NC(=O)NC2CCCCC2)cc1 (stereo not drawn) [Hydroxyhexamide]	-0.0508
CC(C)NCC(O)c1ccccc1Cl (stereo not drawn) [Clorprenaline HCl]	-0.0829
Cc1ccc(-n2nc(C(C)(C)C)cc2NC(=O)Nc2ccc(OCCN3CCOCC3)c3ccccc23)cc1 [BIRB 796 (Doramapimod)]	-0.153
CC(C)S(=O)(=O)c1ccc2nccc(Nc3ccc4scnc4c3)c2c1	-0.0569
CSC(C)=NO [Methomyl Oxime]	0.258
CNC(=O)c1ccc(C)c(-n2c(C)cc(OCc3ccc(F)cc3F)c(Br)c2=O)c1	-0.164
Cc1cc(OCc2nnc(SC3CCCC3)n2-c2cccnc2)ccc1-c1ccc(S(C)(=O)=O)cc1	0.0082
CC1=C[C@H]2C(=O)O[C@H]3C[C@@H](C/C=C(\C)C[C@@H](C)/C=C/C=C4\CO[C@H](/C1=N\O)[C@@]42O)O[C@@]1(CC[C@H](C)[C@@H](C)O1)C3.CC[C@H]1O[C@]2(CC[C@@H]1C)C[C@@H]1C[C@@H](C/C=C(\C)C[C@@H](C)/C=C/C=C3\CO[C@@H]4/C(=N\O)C(C)=C[C@@H](C(=O)O1)[C@]34O)O2 [Milbemycin oxime]	-0.393

Retrieved one by one from the list above (4):
SMILES	thermal shift ΔTm of Mpro [°C]
CC1=C[C@H]2C(=O)O[C@H]3C[C@@H](C/C=C(\C)C[C@@H](C)/C=C/C=C4\CO[C@H](/C1=N\O)[C@@]42O)O[C@@]1(CC[C@H](C)[C@@H](C)O1)C3.CC[C@H]1O[C@]2(CC[C@@H]1C)C[C@@H]1C[C@@H](C/C=C(\C)C[C@@H](C)/C=C/C=C3\CO[C@@H]4/C(=N\O)C(C)=C[C@@H](C(=O)O1)[C@]34O)O2 [Milbemycin oxime]	-0.393
O=C(NC1CCN(CC(F)(F)F)CC1)c1ccc(-c2cccc(F)c2)nc1 [HPGDS-inhibitor-1]	-0.0595
N#C/C(=C\c1ccc(O)c(O)c1)C(=O)NCc1ccccc1 [AG-490 (Tyrphostin B42)]	0.441
C[C@@H]1COC(Nc2ccc3ncnc(Nc4ccc(OCc5nccs5)c(Cl)c4)c3c2)=N1 [Varlitinib]	-0.00505

Going on with the list.

SMILES	thermal shift ΔTm of Mpro [°C]
c1ccc2[nH]ncc2c1 [Indazole]	0.294
COCCOc1ccc(N2CCN(CCn3ncc4c3nc(N)n3nc(-c5ccco5)nc43)CC2)cc1 [Preladenant]	-0.08
c1ccc(CN(CC2=NCCN2)c2ccccc2)cc1 [Antazoline HCl]	-0.029
CC[C@H](C)C[C@H](C)CCCCCCCCC(=O)N[C@H]1C[C@@H](O)[C@@H](NCCN)NC(=O)[C@@H]2[C@@H](O)CCN2C(=O)[C@H]([C@H](O)CCN)NC(=O)[C@H]([C@H](O)[C@@H](O)c2ccc(O)cc2)NC(=O)[C@@H]2C[C@@H](O)CN2C(=O)[C@H]([C@@H](C)O)NC1=O [Caspofungin Acetate]	-0.272
CCn1cc(NC(=S)Nc2cc(Cl)ccc2OC)c(C(N)=O)n1	-0.125
Nc1ncnc2n[nH]c(Nc3ccc(F)cc3)c12	-0.306
CN(C)Cc1ccc(S(=O)(=O)n2ccc(/C=C/C(=O)NO)c2)cc1 [Resminostat hydrochloride]	0.0972
CN(C)Cc1ccc(S(=O)(=O)n2ccc(/C=C/C(=O)NO)c2)cc1 [Resminostat]	-0.171
CCOc1ccc(Oc2ccc(OCc3cc(F)ccc3F)cc2)c(N)c1	-0.249
CN(C)CC/C=C1/c2ccccc2COc2ccc(CC(=O)O)cc21 [Olopatadine HCl]	0.000892
COc1ccc(C2(CNC(=O)[C@H](Cc3c[nH]c4ccccc34)NC(=O)Nc3ccc([N+](=O)[O-])cc3)CCCCC2)cc1	0.408
CC(C(=O)O)c1ccc(C(=O)c2ccccc2)s1 (stereo not drawn) [Tiaprofenic acid]	-0.0447
COc1ccccc1N1CCN(CCCC(=O)c2ccc(F)cc2)CC1 [Fluanisone]	0.323
NC(=O)NS(=O)(=O)c1ccc(N)cc1 [Sulfanilylurea]	0.256
CCCCCCCCCCCCCCCCOP(=O)([O-])OCC[N+](C)(C)C [Miltefosine]	0.0264
Cc1ccsc1/C=C/C1=NCCCN1C [Morantel tartrate]	0.283
O=C(Nc1cnccc1Cl)N1CCN(Cc2ccc3c(c2)OC(F)(F)O3)CC1	0.141
COc1cc(C(C)=O)ccc1O [Apocynin]	-0.0623
CSc1ccc(OCc2ncc([N+](=O)[O-])n2C)cc1 [Fexinidazole]	-0.027
O=C(Nc1nccs1)C(c1cc(F)ccc1O)N1Cc2ccccc2C1=O (stereo not drawn)	-0.0863
Nc1cc(F)ccc1NC(=O)/C=C/c1cnn(C/C=C/c2ccccc2)c1	0.651
Nc1nc(NC2CC2)c2ncn([C@H]3C=C[C@@H](CO)C3)c2n1 [Abacavir sulfate]	0.0297
Nc1nc(NC2CC2)c2ncn([C@H]3C=C[C@@H](CO)C3)c2n1 [Abacavir]	0.0364
